# Data published in PMC5540418.
# Chains of the proteins cited; added tags and fusions are not shown. Residues count along the entry.
# UniProt Q9Y4K0, residues 26-774: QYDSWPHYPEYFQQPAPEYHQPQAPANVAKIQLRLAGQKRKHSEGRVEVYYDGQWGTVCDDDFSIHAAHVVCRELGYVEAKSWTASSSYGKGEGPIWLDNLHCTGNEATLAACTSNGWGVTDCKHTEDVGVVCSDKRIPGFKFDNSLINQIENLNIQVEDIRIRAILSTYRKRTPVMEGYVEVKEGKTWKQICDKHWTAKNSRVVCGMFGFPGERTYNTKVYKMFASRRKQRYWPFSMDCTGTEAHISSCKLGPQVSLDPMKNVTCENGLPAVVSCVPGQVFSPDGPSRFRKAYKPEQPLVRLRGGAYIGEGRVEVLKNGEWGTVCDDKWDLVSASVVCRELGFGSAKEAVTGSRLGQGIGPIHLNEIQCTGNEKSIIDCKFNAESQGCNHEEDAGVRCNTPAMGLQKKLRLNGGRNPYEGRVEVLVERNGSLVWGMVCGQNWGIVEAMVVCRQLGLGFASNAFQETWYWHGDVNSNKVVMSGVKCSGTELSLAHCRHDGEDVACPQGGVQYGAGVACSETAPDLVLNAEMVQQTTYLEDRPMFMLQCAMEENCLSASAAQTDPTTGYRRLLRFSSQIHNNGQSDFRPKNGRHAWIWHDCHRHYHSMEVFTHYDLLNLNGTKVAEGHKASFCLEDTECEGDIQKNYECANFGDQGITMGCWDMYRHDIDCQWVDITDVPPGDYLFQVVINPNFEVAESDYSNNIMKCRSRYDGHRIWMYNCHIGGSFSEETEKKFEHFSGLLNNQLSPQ
# UniProt P48436: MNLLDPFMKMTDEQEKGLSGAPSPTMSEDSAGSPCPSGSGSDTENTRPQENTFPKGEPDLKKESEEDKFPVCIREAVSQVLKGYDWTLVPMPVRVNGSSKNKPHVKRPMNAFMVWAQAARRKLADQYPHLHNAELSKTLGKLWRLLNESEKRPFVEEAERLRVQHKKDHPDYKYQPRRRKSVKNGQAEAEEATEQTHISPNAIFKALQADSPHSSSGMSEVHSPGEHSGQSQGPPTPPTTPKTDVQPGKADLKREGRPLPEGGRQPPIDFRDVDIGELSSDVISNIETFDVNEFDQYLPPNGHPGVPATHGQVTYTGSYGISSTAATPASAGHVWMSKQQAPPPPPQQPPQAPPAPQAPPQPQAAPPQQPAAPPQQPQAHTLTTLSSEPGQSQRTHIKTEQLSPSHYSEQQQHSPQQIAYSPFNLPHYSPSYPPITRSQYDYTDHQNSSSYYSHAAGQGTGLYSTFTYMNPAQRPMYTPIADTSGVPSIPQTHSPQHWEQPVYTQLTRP
# These are yes or no findings as the source states them, for the method shown. In cells and extracts the contact can be indirect.
# Biological target: Lysyl oxidase like-2 (LOXL2), His-tagged, expressed from adenovirus Ad-CMV-RFP-CMV-hLOXL2-His (human) (UniProt Q9Y4K0)
# Assay: pull-down; His-tagged LOXL2 pulled down from lysates of transduced HAC-OA cells (non-denaturing RIPA buffer) on cobalt chelate beads overnight at 4 °C (Pull-Down PolyHis Protein:Protein Interaction Kit); eluates blotted for LOXL2 and SOX9; the text calls it a co-immunoprecipitation assay
substance,measurement,value
Sex determining region Y-box containing gene 9 (SOX9) (from UniProt P48436 1-509),binding,no binding
